Test results taken from BigSolDB 2.1.

`Nc1ccc(S(N)(=O)=O)cc1` gave a solubility (mole fraction) (in chloroform, 278.15 K) of 9.2e-07, a solubility (mole fraction) (in chloroform, 283.15 K) of 1.26e-06 and a solubility (mole fraction) (in chloroform, 288.15 K) of 1.71e-06. For the same molecule, the solubility (mole fraction) (in chloroform, 293.15 K) was 2.27e-06, the solubility (mole fraction) (in chloroform, 298.15 K) was 2.92e-06 and the solubility (mole fraction) (in chloroform, 303.15 K) was 3.68e-06. The solubility (mole fraction) (in chloroform, 308.15 K) was 4.52e-06, the solubility (mole fraction) (in chloroform, 313.15 K) was 5.44e-06 and the solubility (mole fraction) (in chloroform, 318.15 K) was 6.43e-06. For the same molecule, the solubility (mole fraction) (in ethanol, 278.15 K) was 0.00609, the solubility (mole fraction) (in ethanol, 283.15 K) was 0.00688 and the solubility (mole fraction) (in ethanol, 288.15 K) was 0.00814. It also gave a solubility (mole fraction) (in ethanol, 293.15 K) of 0.0097, a solubility (mole fraction) (in ethanol, 298.15 K) of 0.0116 and a solubility (mole fraction) (in ethanol, 303.15 K) of 0.0139. It also gave a solubility (mole fraction) (in ethanol, 308.15 K) of 0.0165, a solubility (mole fraction) (in ethanol, 313.15 K) of 0.0193 and a solubility (mole fraction) (in ethanol, 318.15 K) of 0.0224. The solubility (mole fraction) (in methanol, 278.15 K) was 0.0107, the solubility (mole fraction) (in methanol, 283.15 K) was 0.0138 and the solubility (mole fraction) (in methanol, 288.15 K) was 0.0174. It also gave a solubility (mole fraction) (in methanol, 293.15 K) of 0.0214, a solubility (mole fraction) (in methanol, 298.15 K) of 0.0258 and a solubility (mole fraction) (in methanol, 303.15 K) of 0.0306. The solubility (mole fraction) (in methanol, 308.15 K) was 0.0358, the solubility (mole fraction) (in methanol, 313.15 K) was 0.0413 and the solubility (mole fraction) (in methanol, 318.15 K) was 0.0471. It also gave a solubility (mole fraction) (in toluene, 278.15 K) of 3.7e-06, a solubility (mole fraction) (in toluene, 283.15 K) of 5.6e-06 and a solubility (mole fraction) (in toluene, 288.15 K) of 8.1e-06. It also gave a solubility (mole fraction) (in toluene, 293.15 K) of 1.19e-05, a solubility (mole fraction) (in toluene, 298.15 K) of 1.43e-05 and a solubility (mole fraction) (in toluene, 303.15 K) of 1.88e-05. It also gave a solubility (mole fraction) (in toluene, 308.15 K) of 2.24e-05, a solubility (mole fraction) (in toluene, 313.15 K) of 2.64e-05 and a solubility (mole fraction) (in toluene, 318.15 K) of 3.11e-05.
